One molecule from paper PMC7059865 can be followed below.

Results are given in words; binding and its absence hold for the method and conditions named. Some results given as binding are weak or reduced against the parent protein; the word gives no strength. Sequences can lack the tags named with a protein.

This assay concerns the target T1, Arabidopsis VPS38 (Vacuolar Protein Sorting-38 subunit of the class-III PtdIns-3 kinase complex), fused to the GAL4 DNA-binding domain (Arabidopsis) (UniProt Q8S9J3).
T1 sequence: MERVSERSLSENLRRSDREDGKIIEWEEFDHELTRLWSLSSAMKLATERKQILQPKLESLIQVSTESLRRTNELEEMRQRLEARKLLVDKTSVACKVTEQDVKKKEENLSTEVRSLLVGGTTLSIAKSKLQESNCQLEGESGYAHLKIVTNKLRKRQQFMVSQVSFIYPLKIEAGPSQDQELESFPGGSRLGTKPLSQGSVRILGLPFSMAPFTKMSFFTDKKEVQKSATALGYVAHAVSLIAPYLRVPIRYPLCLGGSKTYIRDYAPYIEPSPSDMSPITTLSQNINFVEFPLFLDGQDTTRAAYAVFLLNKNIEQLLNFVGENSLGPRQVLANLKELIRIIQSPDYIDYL
Put plainly: two-hybrid; GAL4-based Y2H; VPS38-BD and ATG6-AD co-expressed in yeast; growth on synthetic complete medium -L-W-H with 3-amino-1,2,4-triazole (+3AT).

B1: Arabidopsis ATG6, fused to the GAL4 activation domain (protein, UniProt Q9M367 1-517)
chain: MRKEEIPDKSRTIPIDPNLPKWVCQNCHHSLTIVGVDSYAGKFFNDPPPSATQGSSIHGANSVLGSTRMDNSFVVLPRHKPPQSQGIPPRPRGASSPQPDATQSGKAMEESFVVVYKSEPVSDSGGSHNLSLEVGQNGPLHSNTSGFNATINVLTRAFDIARTQTQVEQPLCLECMRVLSDKLEKEVEDVTRDVEAYEACVQRLEGETQDVLSEADFLKEKKKIEEEERKLVAAIEETEKQNAEVNHQLKELEFKGNRFNELEDRYWQEFNNFQFQLIAHQEERDAILAKIEVSQAHLELLNKTNVLIDAFPIRNDGEFGTINNFRLGRLPAIKVEWDEINAAWGQACLLLHTMCNYFRPKFQCQVKIQPMGSYPRIVDSNNETYELFGPVNLFWSTRYDKAMTLYLMCLKDFADFANSKDQENNIPPDNCLNLPYKIEKDKVLGYSITQSFNKQESWTKALKYTLCNLKWALYWFVGNTNFQPLSATVSLPSNISAAGSLYAKRGPDSSKPSCKKT
For the molecule B1, the binding result is given as “binds”.
